Reference: patent US20240317867A1
Results are given in words; binding and its absence hold for the method and conditions named. For some of these results: Binding seen in cells or lysates may run through a third protein. Some binding calls cover weakened binding; strength is not graded here.

Experiments:
[1] = biological target: T1, IGFR-like receptor 1 (endogenous protein of mouse Min6 insulinoma cells) (mouse) (UniProt A2AFS3); experiment: co-immunostaining and co-immunoprecipitation in Min6 cells
T1 sequence (looked up): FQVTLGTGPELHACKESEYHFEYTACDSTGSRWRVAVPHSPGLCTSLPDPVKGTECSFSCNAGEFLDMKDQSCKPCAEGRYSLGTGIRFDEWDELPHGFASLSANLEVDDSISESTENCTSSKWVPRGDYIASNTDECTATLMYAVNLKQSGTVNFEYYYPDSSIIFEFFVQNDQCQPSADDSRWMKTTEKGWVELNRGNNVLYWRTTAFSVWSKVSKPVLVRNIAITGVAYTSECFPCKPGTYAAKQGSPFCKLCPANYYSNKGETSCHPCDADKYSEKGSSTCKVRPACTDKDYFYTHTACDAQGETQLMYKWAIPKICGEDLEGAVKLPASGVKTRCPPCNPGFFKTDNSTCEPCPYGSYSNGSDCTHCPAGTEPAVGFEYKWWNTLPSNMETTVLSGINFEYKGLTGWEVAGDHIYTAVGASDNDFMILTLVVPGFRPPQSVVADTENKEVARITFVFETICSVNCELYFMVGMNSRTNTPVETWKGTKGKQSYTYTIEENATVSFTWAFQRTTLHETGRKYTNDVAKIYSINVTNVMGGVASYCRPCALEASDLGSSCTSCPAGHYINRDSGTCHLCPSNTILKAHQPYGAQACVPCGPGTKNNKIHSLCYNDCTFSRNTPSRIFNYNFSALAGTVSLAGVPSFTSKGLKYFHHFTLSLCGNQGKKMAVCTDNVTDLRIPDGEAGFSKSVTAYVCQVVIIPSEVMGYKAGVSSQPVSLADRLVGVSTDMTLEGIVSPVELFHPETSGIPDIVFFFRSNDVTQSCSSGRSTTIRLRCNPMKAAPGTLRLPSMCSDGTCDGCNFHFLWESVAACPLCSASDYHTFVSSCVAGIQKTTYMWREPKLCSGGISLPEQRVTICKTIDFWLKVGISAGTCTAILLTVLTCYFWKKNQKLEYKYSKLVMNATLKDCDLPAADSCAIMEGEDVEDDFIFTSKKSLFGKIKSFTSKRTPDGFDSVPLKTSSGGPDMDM

[2] = biological target: T1, IGFR-like receptor 1 (endogenous protein of mouse Min6 insulinoma cells) (mouse); experiment: co-immunostaining in Min6 cells (co-localization; the filing counts strong co-localization as binding)
[3] = biological target: T1, IGFR-like receptor 1 (endogenous protein of mouse Min6 insulinoma cells) (mouse); experiment: reciprocal co-immunoprecipitation from Min6 lysate (anti-IGFR-I1 and anti-IGFR-I2 antibodies, not named), Western blot
[4] = biological target: T1, IGFR-like receptor 1 (endogenous protein of mouse Min6 insulinoma cells) (mouse); experiment: co-immunoprecipitation from Min6 lysate with 36D7 (anti-IGFR-I1), and the reverse with 28G11 (anti-IGFR-I2); Western blot

Measured: binding

B1: IGFR-like receptor 2 (endogenous protein of mouse Min6 insulinoma cells) (receptor, UniProt Q3UZV7 48-1028, looked up)
chain: GDSSSSGRPLPACQEKDYHFEYTECDSTGSRWRVAIPNSAVDCSGLPDPVKGKECTFSCASGEYLEMKNQVCSKCVEGTYSLGSGIKFDEWDELPAGFSNVATFMDTVVGPSDSRPDGCNNSSWLPRGNYIESNRDDCTVSLIYAVHLKKSGYVFFEYQYVDNNIFFEFFIQNDQCQEMDATTDKWVKLTDNGEWGSHSVMLKSGTNILYWRTTGILMGSKAVKPVLVKNITIEGVAYTSECFPCKPGTFSNKPGSFNCQMCPRNTYSEKGAKECIRCKEDSQFSEEGASECVDRPPCTTKDYFQIHTPCDEEGKTQIMYKWIEPKICREDLTDAIRLPPSGEKKDCPPCNPGFYNNGSSSCHPCPPGTFSDGTKECKSCPAGTEPALGFEYKWWNVLPANMKTSCFNVGNSKCDGMNGWEVAGDHIRSGAGGSDNDYLILNLHIPGFKPPTSMTGATGSELGRITFVFETLCSADCVLYFMVDINRKSTNVVESWGGTKEKQAYTHVIFKNATFTFTWAFQRTNQGQDNRRFINDVVKIYSITATNAVDGVAASCRACALGSEQSASSCVPCPPGHYIEKETNQCKECPADTYLSIHQVYGKEACIPCGPGSKSTQDHSLCYSDCFFYHEKENQTLHYDFRNLSSVGSLMNGPSFTSKGTKYFHFFNISLCGHEGRKMALCTNNISDFTVKEMVTGSDDYTNLVGAFVCQSTIIPSESKGFRAALSSQSIILADMFLGVTVDTALQNVNIKEDMFPVSPSQVPDVHFFYKSSTATTSCINGRSTAVKMRCNPMRPGAGVISVPSKCPAGTCDGCTFYFLWESAEACPLCTEHDFHEIEGACKRGLQEILYVWNEPKWCIKGISLPEKKLSTCETVDFWLKVGAGVGAFTAVLLVALTCYFWKKNQKLEYKYSKLVMTTNSKECELPAADSCAIMEGEDNEEDVVYSNKQSLLGKLKSLATKEKDDHFESVQLKSSRCPNI
binds: all assays above
